In the supplement of paper PMC10338343:
± gives the standard deviation. This is one part of the list. Many of these values have a large error.

system: EfPiwi piRISC loaded with L1MC piRNA (26 nt); experiment: pre-steady-state target cleavage rate (min^-1); guide: L1MC piRNA 5'p-UAACUAAAUACUAUGCAAGCUGUAGG; MIWI and MILI are mouse PIWI proteins and EfPiwi is from a freshwater sponge; tags in brackets are library labels; higher = faster piRNA-guided slicing of the target; conditions: auxiliary factor: 500 nM Ephydatia muelleri Gtsf1
Summary of the method: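 The pre-steady-state cleavage rate was calculated from a burst-and-steady-state fit. Data came from Cleave-'n-Seq, in which […] transcribed, DNA-blocked target RNA library was mixed with 1 nM active affinity-purified piRISC carrying one synthetic guide, with or without 500 nM GTSF1 partner protein, in HEPES–potassium acetate buffer at 33 °C for 0–8 or 0–960 min. Uncleaved targets were sequenced and normalised to depth and to weakly complementary targets, three trials were pooled, and k3 was capped at 0.0001 min^-1.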

| Sequence | pre-steady-state target cleavage rate |
| --- | --- |
| UCCUGCUACAGCUUGCAUAGUAGUUAGUUA | 0.00461 ± 0.0015 |
| UCCUCCACAGCUUGCAUAGUAUUUAGUUA | 0.0564 ± 0.018 |
| UCCUGGAACAGGUUGCAUACUAUUUAGUUA | 0.00367 ± 0.0017 |
| UCCUCCUACAGCUUGCAUAGUAUUUAGUGUA | 0.00735 ± 0.0033 |
| UCCUGGAUGUCGAACGAUAGUAUUUCAGUUA | 0.000179 ± 0.032 |
| UCCUGGAUCAGCUUGCAAAGUUUUUAGUUA | 0.00491 ± 0.0036 |
| UCCUGGAACAGCAUGCAAAGUAUUUAGUUA | 0.0163 ± 0.0061 |
| UCCUGGAAAAGCUUGCAUAGUAUUUAGUUA | 0.0119 ± 0.0039 |

same assay, conditions: auxiliary factor: none (no Gtsf1)

| Sequence | pre-steady-state target cleavage rate |
| --- | --- |
| UCCUGGAACAGGUUGCAUUGUAUUUAGUUA | 0.000318 ± 0.032 |
| UCCUGGAUGUCCUUGCAUAGUAUGUUAGUUA | 0.000595 ± 0.019 |
| UCCUGCUACAGGAUGCAUAGUAUUUAGUAA | 0.000186 ± 0.034 |
| UCCUGGAUGUCGAACGUUAGUCUUUAGUUA | 0.000117 ± 0.039 |
| UCCUGGAUGUGUUUGCAUAGUAUUUAGUUA | 0.00155 ± 0.009 |
| UCCUGGAAGAGGUUGCAUAGUAUUUAGUUA | 0.00126 ± 0.0094 |
| UCCUGGUACAGCUUGUAUAGUAUUUAGUUA | 0.000746 ± 0.017 |
| UCCUGGAUGUCGAACGACAGUAUUUAGUUA | 0.000245 ± 0.018 |

Random excerpt: 2 records from the list, in no set order.

| Sequence | pre-steady-state target cleavage rate |
| --- | --- |
| UCCUGGAACAGGUUGCAUUGUAUUUAGUUA | 0.000318 ± 0.032 |
| UCCUGGAUGUCGAACGACAGUAUUUAGUUA | 0.000245 ± 0.018 |
